Test results as given in paper PMC10993856.
No constants are given. Whether binding was seen depends on the method and setting. Binding seen in cells or lysates may run through a third protein. Some binding calls cover weakened binding; strength is not graded here.

Chains of the proteins cited; added tags and fusions are not shown.
UniProt Q92841: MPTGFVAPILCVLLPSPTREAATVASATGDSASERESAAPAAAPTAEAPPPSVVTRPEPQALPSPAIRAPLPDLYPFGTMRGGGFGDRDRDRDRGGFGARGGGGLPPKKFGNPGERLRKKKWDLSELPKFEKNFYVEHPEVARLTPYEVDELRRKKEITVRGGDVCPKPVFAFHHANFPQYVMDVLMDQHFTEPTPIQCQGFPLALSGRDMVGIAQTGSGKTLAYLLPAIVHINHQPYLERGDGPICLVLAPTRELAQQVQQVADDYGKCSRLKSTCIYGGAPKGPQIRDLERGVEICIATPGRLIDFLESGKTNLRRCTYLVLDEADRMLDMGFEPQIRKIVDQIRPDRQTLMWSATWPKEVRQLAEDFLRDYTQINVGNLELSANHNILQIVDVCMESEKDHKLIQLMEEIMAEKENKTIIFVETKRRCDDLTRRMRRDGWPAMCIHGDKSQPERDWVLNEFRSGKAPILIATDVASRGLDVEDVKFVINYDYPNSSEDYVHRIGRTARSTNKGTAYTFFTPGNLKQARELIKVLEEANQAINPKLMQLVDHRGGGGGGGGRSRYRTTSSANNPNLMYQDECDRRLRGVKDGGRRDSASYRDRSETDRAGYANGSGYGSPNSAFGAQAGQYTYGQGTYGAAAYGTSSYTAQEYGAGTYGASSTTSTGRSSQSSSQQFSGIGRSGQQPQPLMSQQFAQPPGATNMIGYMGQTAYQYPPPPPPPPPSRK
UniProt Q8TDD1: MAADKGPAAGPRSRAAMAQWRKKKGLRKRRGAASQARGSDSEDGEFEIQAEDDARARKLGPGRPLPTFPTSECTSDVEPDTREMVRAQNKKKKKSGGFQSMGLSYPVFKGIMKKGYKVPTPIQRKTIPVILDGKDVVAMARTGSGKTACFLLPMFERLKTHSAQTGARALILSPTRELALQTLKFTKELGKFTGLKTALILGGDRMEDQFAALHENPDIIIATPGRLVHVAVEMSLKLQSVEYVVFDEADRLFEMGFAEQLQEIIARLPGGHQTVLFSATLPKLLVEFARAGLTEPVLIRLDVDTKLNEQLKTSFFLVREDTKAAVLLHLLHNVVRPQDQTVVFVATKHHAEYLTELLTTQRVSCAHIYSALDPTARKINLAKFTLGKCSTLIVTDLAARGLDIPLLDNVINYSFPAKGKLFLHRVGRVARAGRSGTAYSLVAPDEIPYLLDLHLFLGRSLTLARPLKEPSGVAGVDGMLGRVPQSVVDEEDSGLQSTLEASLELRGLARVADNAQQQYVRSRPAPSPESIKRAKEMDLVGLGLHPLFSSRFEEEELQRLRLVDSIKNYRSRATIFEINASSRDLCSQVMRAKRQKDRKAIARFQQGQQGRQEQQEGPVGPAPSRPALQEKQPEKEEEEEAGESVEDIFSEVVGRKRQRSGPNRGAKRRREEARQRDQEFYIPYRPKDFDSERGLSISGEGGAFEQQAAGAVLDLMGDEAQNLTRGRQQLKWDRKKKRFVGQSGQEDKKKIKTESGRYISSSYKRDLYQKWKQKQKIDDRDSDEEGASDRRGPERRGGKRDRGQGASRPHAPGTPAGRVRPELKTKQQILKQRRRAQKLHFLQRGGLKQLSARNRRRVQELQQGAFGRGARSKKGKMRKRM
UniProt Q08211: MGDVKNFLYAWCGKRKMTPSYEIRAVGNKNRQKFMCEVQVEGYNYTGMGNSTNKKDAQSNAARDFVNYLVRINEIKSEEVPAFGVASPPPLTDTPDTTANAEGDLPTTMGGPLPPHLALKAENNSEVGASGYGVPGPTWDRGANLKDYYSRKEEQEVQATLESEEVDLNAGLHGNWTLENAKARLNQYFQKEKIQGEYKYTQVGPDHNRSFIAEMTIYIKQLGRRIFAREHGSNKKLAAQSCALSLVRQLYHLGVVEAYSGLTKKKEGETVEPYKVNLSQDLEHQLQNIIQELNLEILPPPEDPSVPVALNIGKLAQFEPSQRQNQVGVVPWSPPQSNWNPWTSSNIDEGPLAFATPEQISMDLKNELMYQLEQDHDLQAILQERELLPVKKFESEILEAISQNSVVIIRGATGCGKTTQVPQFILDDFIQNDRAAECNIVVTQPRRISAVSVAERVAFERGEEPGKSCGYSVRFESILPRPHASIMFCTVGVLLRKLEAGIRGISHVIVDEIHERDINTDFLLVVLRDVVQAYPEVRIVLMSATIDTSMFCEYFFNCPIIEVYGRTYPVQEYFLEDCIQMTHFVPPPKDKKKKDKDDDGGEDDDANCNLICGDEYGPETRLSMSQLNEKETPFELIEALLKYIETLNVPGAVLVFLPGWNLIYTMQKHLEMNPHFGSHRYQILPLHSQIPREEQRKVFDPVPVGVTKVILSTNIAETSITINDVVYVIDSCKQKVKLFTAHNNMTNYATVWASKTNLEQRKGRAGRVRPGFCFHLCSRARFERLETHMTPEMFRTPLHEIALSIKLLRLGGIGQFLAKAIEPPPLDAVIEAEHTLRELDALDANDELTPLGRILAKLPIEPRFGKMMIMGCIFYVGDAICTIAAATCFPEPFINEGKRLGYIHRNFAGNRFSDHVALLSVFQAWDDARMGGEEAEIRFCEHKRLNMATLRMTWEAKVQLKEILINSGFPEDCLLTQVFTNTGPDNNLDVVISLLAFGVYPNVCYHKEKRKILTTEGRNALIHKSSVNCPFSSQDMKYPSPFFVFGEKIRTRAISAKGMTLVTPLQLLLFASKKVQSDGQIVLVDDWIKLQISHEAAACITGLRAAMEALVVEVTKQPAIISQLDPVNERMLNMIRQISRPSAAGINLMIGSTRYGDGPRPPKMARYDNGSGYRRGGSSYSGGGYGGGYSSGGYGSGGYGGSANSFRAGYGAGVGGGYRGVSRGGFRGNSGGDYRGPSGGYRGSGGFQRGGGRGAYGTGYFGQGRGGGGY

Assays:
[1] = target: DDX17 (human (endogenous in SK-BR-3, MCF-7)) (UniProt Q92841); assay: co-IP; as a2, but 20 µg RNase A added to the lysate during overnight mixing with the antibody
[2] = target: DDX54 (human (endogenous in SK-BR-3, MCF-7)) (UniProt Q8TDD1); assay: as above
[3] = target: DHX9 (human (endogenous in SK-BR-3, MCF-7, MDA-MB-231)) (UniProt Q08211); assay: as above
[4] = target: DHX9 (human (endogenous in SK-BR-3, MCF-7, MDA-MB-231)) (UniProt Q08211); assay: co-IP; as a2, but 20 U RNase III with MnCl2 added to the lysate during overnight mixing with the antibody
[5] = target: DDX17 (human (endogenous in SK-BR-3, MCF-7)) (UniProt Q92841); assay: co-IP; endogenous proteins; 1 mg RIPA lysate with RNaseOUT (no RNase), 2-10 µg antibody against the bait overnight at 4°C, Protein G Dynabeads, immunoblot for ADAR1; SK-BR-3, MCF-7, MDA-MB-231
[6] = target: DDX54 (human (endogenous in SK-BR-3, MCF-7)) (UniProt Q8TDD1); assay: as above
[7] = target: DHX9 (human (endogenous in SK-BR-3, MCF-7, MDA-MB-231)) (UniProt Q08211); assay: as above

Measured: binding

B1: ADAR1-p110 (protein, UniProt P55265-5 1-931)
chain: MAEIKEKICDYLFNVSDSSALNLAKNIGLTKARDINAVLIDMERQGDVYRQGTTPPIWHLTDKKRERMQIKRNTNSVPETAPAAIPETKRNAEFLTCNIPTSNASNNMVTTEKVENGQEPVIKLENRQEARPEPARLKPPVHYNGPSKAGYVDFENGQWATDDIPDDLNSIRAAPGEFRAIMEMPSFYSHGLPRCSPYKKLTECQLKNPISGLLEYAQFASQTCEFNMIEQSGPPHEPRFKFQVVINGREFPPAEAGSKKVAKQDAAMKAMTILLEEAKAKDSGKSEESSHYSTEKESEKTAESQTPTPSATSFFSGKSPVTTLLECMHKLGNSCEFRLLSKEGPAHEPKFQYCVAVGAQTFPSVSAPSKKVAKQMAAEEAMKALHGEATNSMASDNQPEGMISESLDNLESMMPNKVRKIGELVRYLNTNPVGGLLEYARSHGFAAEFKLVDQSGPPHEPKFVYQAKVGGRWFPAVCAHSKKQGKQEAADAALRVLIGENEKAERMGFTEVTPVTGASLRRTMLLLSRSPEAQPKTLPLTGSTFHDQIAMLSHRCFNTLTNSFQPSLLGRKILAAIIMKKDSEDMGVVVSLGTGNRCVKGDSLSLKGETVNDCHAEIISRRGFIRFLYSELMKYNSQTAKDSIFEPAKGGEKLQIKKTVSFHLYISTAPCGDGALFDKSCSDRAMESTESRHYPVFENPKQGKLRTKVENGEGTIPVESSDIVPTWDGIRLGERLRTMSCSDKILRWNVLGLQGALLTHFLQPIYLKSVTLGYLFSQGHLTRAICCRVTRDGSAFEDGLRHPFIVNHPKVGRVSIYDSKRQSGKTKETSVNWCLADGYDLEILDGTRGTVDGPRNELSRVSKKNIFLLFKKLCSFRYRRDLLRLSYGEAKKAARDYETAKNYFKKGLKDMGYGNWISKPQEEKNFYLCPV
binds: all assays above

B2: ADAR1-p150 (protein, UniProt P55265-1 1-1226)
chain: MNPRQGYSLSGYYTHPFQGYEHRQLRYQQPGPGSSPSSFLLKQIEFLKGQLPEAPVIGKQTPSLPPSLPGLRPRFPVLLASSTRGRQVDIRGVPRGVHLRSQGLQRGFQHPSPRGRSLPQRGVDCLSSHFQELSIYQDQEQRILKFLEELGEGKATTAHDLSGKLGTPKKEINRVLYSLAKKGKLQKEAGTPPLWKIAVSTQAWNQHSGVVRPDGHSQGAPNSDPSLEPEDRNSTSVSEDLLEPFIAVSAQAWNQHSGVVRPDSHSQGSPNSDPGLEPEDSNSTSALEDPLEFLDMAEIKEKICDYLFNVSDSSALNLAKNIGLTKARDINAVLIDMERQGDVYRQGTTPPIWHLTDKKRERMQIKRNTNSVPETAPAAIPETKRNAEFLTCNIPTSNASNNMVTTEKVENGQEPVIKLENRQEARPEPARLKPPVHYNGPSKAGYVDFENGQWATDDIPDDLNSIRAAPGEFRAIMEMPSFYSHGLPRCSPYKKLTECQLKNPISGLLEYAQFASQTCEFNMIEQSGPPHEPRFKFQVVINGREFPPAEAGSKKVAKQDAAMKAMTILLEEAKAKDSGKSEESSHYSTEKESEKTAESQTPTPSATSFFSGKSPVTTLLECMHKLGNSCEFRLLSKEGPAHEPKFQYCVAVGAQTFPSVSAPSKKVAKQMAAEEAMKALHGEATNSMASDNQPEGMISESLDNLESMMPNKVRKIGELVRYLNTNPVGGLLEYARSHGFAAEFKLVDQSGPPHEPKFVYQAKVGGRWFPAVCAHSKKQGKQEAADAALRVLIGENEKAERMGFTEVTPVTGASLRRTMLLLSRSPEAQPKTLPLTGSTFHDQIAMLSHRCFNTLTNSFQPSLLGRKILAAIIMKKDSEDMGVVVSLGTGNRCVKGDSLSLKGETVNDCHAEIISRRGFIRFLYSELMKYNSQTAKDSIFEPAKGGEKLQIKKTVSFHLYISTAPCGDGALFDKSCSDRAMESTESRHYPVFENPKQGKLRTKVENGEGTIPVESSDIVPTWDGIRLGERLRTMSCSDKILRWNVLGLQGALLTHFLQPIYLKSVTLGYLFSQGHLTRAICCRVTRDGSAFEDGLRHPFIVNHPKVGRVSIYDSKRQSGKTKETSVNWCLADGYDLEILDGTRGTVDGPRNELSRVSKKNIFLLFKKLCSFRYRRDLLRLSYGEAKKAARDYETAKNYFKKGLKDMGYGNWISKPQEEKNFYLCPV
binds: [4] | [7]
